From PMC8637766 (RSC Chemical Biology, 2021)
Some peptides are written in HELM: one residue between dots, names in brackets for other building blocks, links after the first $.

Experiment: general procedure: Fmoc solid-phase peptide synthesis; Rink Amide MBHA resin (100-200 mesh, 0.78 mmol/g); Tentagel S RAM resin; DIC/Oxyma
Settings: whole synthesis; for isolated yield: scale of the general procedure 0.25 scale of the general procedure (150 mg of resin)

Substance	isolated yield (run 1)	isolated mass (run 1)	isolated mass	isolated yield
PEPTIDE1{K.K.L.L.K.L.L.K.L.L.L.[am]}$$$$V2.0	58.0%	84.0 mg		
PEPTIDE1{[Btol].K.K.L.L.K.C.L.K.C.L.L.[am]}$PEPTIDE1,PEPTIDE1,1:R3-7:R3|PEPTIDE1,PEPTIDE1,1:R4-10:R3$$$V2.0			41.5 mg	26.5%
PEPTIDE1{[Btol].K.L.L.K.L.C.K.K.C.L.[am]}$PEPTIDE1,PEPTIDE1,1:R3-7:R3|PEPTIDE1,PEPTIDE1,1:R4-10:R3$$$V2.0			31.2 mg	21.7%
PEPTIDE1{[Btol].K.K.L.L.K.[dC].L.K.[dC].L.L.[am]}$PEPTIDE1,PEPTIDE1,1:R3-7:R3|PEPTIDE1,PEPTIDE1,1:R4-10:R3$$$V2.0			55.7 mg	35.7%
PEPTIDE1{[Btol].K.L.L.K.K.C.L.K.C.L.[am]}$PEPTIDE1,PEPTIDE1,1:R3-7:R3|PEPTIDE1,PEPTIDE1,1:R4-10:R3$$$V2.0			37.4 mg	26.0%
PEPTIDE1{[Btol].K.K.L.L.K.C.K.L.C.L.[am]}$PEPTIDE1,PEPTIDE1,1:R3-7:R3|PEPTIDE1,PEPTIDE1,1:R4-10:R3$$$V2.0			23.5 mg	16.3%
PEPTIDE1{[Btol].K.K.L.L.L.C.K.L.C.K.[am]}$PEPTIDE1,PEPTIDE1,1:R3-7:R3|PEPTIDE1,PEPTIDE1,1:R4-10:R3$$$V2.0			33.5 mg	23.3%
(*)KKLLKLLKLLL			21.9 mg	11.0%
PEPTIDE1{[Btol].K.K.L.C.K.L.L.K.C.[am]}$PEPTIDE1,PEPTIDE1,1:R3-5:R3|PEPTIDE1,PEPTIDE1,1:R4-10:R3$$$V2.0			41.5 mg	26.5%
PEPTIDE1{[Btol].K.K.L.C.K.L.L.K.C.L.[am]}$PEPTIDE1,PEPTIDE1,1:R3-5:R3|PEPTIDE1,PEPTIDE1,1:R4-10:R3$$$V2.0			33.5 mg	23.3%
PEPTIDE1{[Btol].K.K.L.L.K.C.L.K.C.L.[am]}$PEPTIDE1,PEPTIDE1,1:R3-7:R3|PEPTIDE1,PEPTIDE1,1:R4-10:R3$$$V2.0			21.6 mg	15.0%
PEPTIDE1{[Btol].[dK].K.[dL].L.[dK].C.[dL].K.[dC].L.[dL].[am]}$PEPTIDE1,PEPTIDE1,1:R3-7:R3|PEPTIDE1,PEPTIDE1,1:R4-10:R3$$$V2.0			51.2 mg	32.8%
PEPTIDE1{[Btol].[dK].[dK].L.L.[dK].C.L.[dK].C.L.L.[am]}$PEPTIDE1,PEPTIDE1,1:R3-7:R3|PEPTIDE1,PEPTIDE1,1:R4-10:R3$$$V2.0			45.7 mg	29.3%
PEPTIDE1{[Tol].K.K.L.L.K.[Cm].L.K.[Cm].L.L.[am]}$$$$V2.0			84.0 mg	58.0%
PEPTIDE1{[Tol].[dK].[dK].L.L.[dK].[Cm].L.[dK].[Cm].L.L.[am]}$$$$V2.0			102.6 mg	70.9%
PEPTIDE1{[Btol].K.K.L.C.K.L.C.K.L.[am]}$PEPTIDE1,PEPTIDE1,1:R3-5:R3|PEPTIDE1,PEPTIDE1,1:R4-8:R3$$$V2.0			41.2 mg	31.3%
PEPTIDE1{[dK].[dK].L.L.[dK].L.L.[dK].L.L.L.[am]}$$$$V2.0	70.9%	102.6 mg		
